In PubChem BioAssay AID2685 (National Center for Advancing Translational Sciences (NCATS), 2010):
The list shows a part of the results. The main result of the screen is listed elsewhere. These columns were measured beside it and carry no call. The list favours compounds with an active or inconclusive main result. Potencies come from curve fits of mixed quality, noted in brackets.

Assay: qHTS Assay for Lipid Storage Modulators in Drosophila S3 Cells;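 for cell number change: cells counted by Cell Tracker Red CMTPX staining in the red channel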
Conditions: BODIPY lipid droplet fluorescence, 18-24 h; for cell number change: measured here: cell count max response, cells fed with added oleic acid
Outline: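 Drosophila S3 cells got compounds at several concentrations plus oleic acid (400 uM solution). Laser-scanning cytometry with 488 nm excitation read lipid droplets at 500-530 nm and cells at 575-640 nm. Percent activity was relative to 20 uM Triacsin C.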

[1] = measured here: lipid fluorescence (Fed channel) AC50, cells fed with added oleic acid
[2] = measured here: cell number channel AC50, cells fed with added oleic acid

| Compound | cell number change [%] | AC50 [1] | AC50 [2] |
| --- | --- | --- | --- |
| S=c1[nH]nc(COc2cccc3ccccc23)n1Cc1ccccc1 | -27.6 | 9200 nM [falling, single point] | – |
| CC(=O)Nc1ccc(N=Nc2c(C)[nH]n(C(N)=S)c2=O)cc1 | -34.2 | 6510 nM [falling, partial curve] | 8200 nM [falling, partial curve] |
| Cc1ccc(C)c(NC(=O)COC(=O)CC2c3ccccc3CCN2S(=O)(=O)c2ccc(F)cc2)c1 (configuration not stated) | -42.3 | 5.17 nM [rising, full curve, poor fit] | 29100 nM [falling, single point] |
| CC(C)(C)OC(=O)CNC(=O)c1nc[nH]c1C(=O)N1CCN(C(=O)OC(C)(C)C)CC1 | 19.8 | – | – |
| O=C(NCCN1CCCCC1)Nc1ccc(F)c(Cl)c1 | 17.6 | 1840 nM [falling, partial curve] | – |
| Cc1ccc(C(=O)NNC(=O)c2cc3ccccc3cc2O)cc1 | 24.6 | 29100 nM [rising, single point] | – |
| O=C(CC1C(=O)N(c2ccc(F)cc2)C(=O)N1Cc1ccccn1)Nc1ccccc1 (configuration not stated) | 40.9 | – | 25900 nM [rising, single point] |
| CC(=O)c1ccc(N2CCN(C(=O)c3ccc(Cl)c(NC4=NC5CS(=O)(=O)CC5S4)c3)CC2)cc1 (configuration not stated) | 52.8 | – | 29100 nM [rising, single point] |
| Cn1cnnc1SCC(=O)c1ccc(OC(F)F)cc1 | 11.9 | 1160 nM [falling, full curve] | – |
| N/C(Cn1cncn1)=N\NC(=O)C(=O)Nc1ccccc1 | -32.7 | 2590 nM [falling, partial curve, poor fit] | – |
| CC1CC(C)CN(CC(=O)NNC(=O)COc2ccc(Cl)cc2)C1 (configuration not stated) | -40.9 | 7.31 nM [falling, full curve, poor fit] | 5.17 nM [falling, full curve, poor fit] |
| COc1ccccc1CN1C[C@@H]2C[C@@H](c3cccc(C)n3)N3CCC[C@@]23C1=O | 5.03 | 517 nM [falling, full curve, poor fit] | – |
| Cc1cccc(N2CCN(C(=O)c3ccc(-n4cncn4)c([N+](=O)[O-])c3)CC2)c1C | -26.3 | 1300 nM [rising, partial curve] | – |
| CC(=O)C1C(c2ccc(O)cc2)NC(=O)NC1(O)C(F)(F)F (configuration not stated) | -24.4 | 7310 nM [falling, partial curve] | – |
| CC(=O)Nc1ccc2c(c1)CCc1ccccc1-2 | 15.4 | 130 nM [rising, full curve, poor fit] | – |

An excerpt of these results, as tab-separated lines.
Compound	cell number change [%]	AC50 [1]	AC50 [2]
CC(=O)C1C(c2ccc(O)cc2)NC(=O)NC1(O)C(F)(F)F (configuration not stated)	-24.4	7310 nM [falling, partial curve]	–
CC(=O)Nc1ccc2c(c1)CCc1ccccc1-2	15.4	130 nM [rising, full curve, poor fit]	–
